Patent publication US6512102
These are yes or no findings as the source states them, for the method shown. Binding seen in cells or lysates may run through a third protein. Some binding calls cover weakened binding; strength is not graded here.

Amino acid sequences for entries named in this document (tags omitted). A change or cut given only in a name is not applied to a line headed by its entry.
UniProt P49841: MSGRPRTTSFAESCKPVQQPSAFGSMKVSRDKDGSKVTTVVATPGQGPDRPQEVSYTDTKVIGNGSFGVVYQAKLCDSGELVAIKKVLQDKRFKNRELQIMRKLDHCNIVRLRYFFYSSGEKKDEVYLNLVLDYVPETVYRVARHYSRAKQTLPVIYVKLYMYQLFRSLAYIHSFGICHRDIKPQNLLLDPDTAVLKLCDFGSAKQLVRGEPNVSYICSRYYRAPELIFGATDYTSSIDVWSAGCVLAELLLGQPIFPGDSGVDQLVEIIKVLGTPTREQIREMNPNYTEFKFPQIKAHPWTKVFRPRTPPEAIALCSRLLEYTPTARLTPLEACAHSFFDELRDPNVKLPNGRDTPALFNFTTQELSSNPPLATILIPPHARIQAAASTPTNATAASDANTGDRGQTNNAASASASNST
UniProt Q9JMK2: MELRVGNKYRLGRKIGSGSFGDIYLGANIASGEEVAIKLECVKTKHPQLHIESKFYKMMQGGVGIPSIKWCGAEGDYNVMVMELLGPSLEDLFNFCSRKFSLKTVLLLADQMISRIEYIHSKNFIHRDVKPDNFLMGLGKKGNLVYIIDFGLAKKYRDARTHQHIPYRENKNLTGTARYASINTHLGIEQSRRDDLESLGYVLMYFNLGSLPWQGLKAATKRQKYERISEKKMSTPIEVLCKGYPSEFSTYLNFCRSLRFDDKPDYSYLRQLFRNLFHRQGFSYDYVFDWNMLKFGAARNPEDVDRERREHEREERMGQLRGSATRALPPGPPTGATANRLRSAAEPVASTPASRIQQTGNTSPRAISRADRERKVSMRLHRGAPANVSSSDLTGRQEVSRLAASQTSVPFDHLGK

Columns and labels:
GSK3 (huGSK3myc) (human) [1] = biological target: GSK3 (huGSK3myc) (human) (UniProt P49841); test: co-immunoprecipitation from cells cotransfected with CKIε and GSK3
GSK3 (huGSK3myc) (human) [2] = biological target: GSK3 (huGSK3myc) (human) (UniProt P49841); test: interaction in vivo (co-immunoprecipitation from transfected cells)

binding (GSK3 (huGSK3myc) (human) [1]): binds | binding (GSK3 (huGSK3myc) (human) [2]): binds
Substance: mouse casein kinase I epsilon, HA-tagged (CKIε-HA) (from UniProt Q9JMK2 1-416) (enzyme)
